At least one compound was matched to its structure with a doubt left.
What was measured:
[1] = system: cAMP-dependent protein kinase (PKA); test: Test for 3',5'-cAMP-dependent protein kinase inhibition (PKA catalytic subunit, Kemptide substrate); assay type: biochemical; settings: 40 μM ATP, 15' at 30° C.
Procedure: Test for 3',5'-cAMP-dependent protein kinase inhibition
The catalytic subunit of the cAMP-dependent protein kinase (PKA) (Sigma) was reconstituted as described by Sigma (Sigma Chemical Co., St. Louis, Mo. USA). The enzyme activity was measured using Kemptide (Sigma) (Leu-Arg-Arg-Ala-Ser-Leu-Gly) as a substrate. […] The reaction was initiated by addition of gamma-^32 P ATP (40 μM) After 15'at 30° C., an aliquot part was added to p81 ion exchanger (2×2 cm; Whatman Paper Ltd., Great Britain), immersed in 75 mM H3 PO4, washed, dried, and the incorporation of ^32 P was determined by means of a liquid scintillation counter.

[2] = system: hela cells; test: Test for inhibition of EGF-stimulated proliferation of tumor cells (hela, MTT); assay type: cell-based; settings: EGF 0.1 nM, 65 h, tox = toxic
Procedure: Test for inhibition of EGF- or bFGF-stimulated proliferation of tumor cells
2×10^3 hela cells per well were inoculated into a 96-well microtiter plate (in RPMI+1% FCS ). After 24 h, the medium was changed to RPMI+0.5% FCS and various concentrations of the test substance±EGF (0.1 nM)/bFGF (1 ng/ml) were added. Each group consisted of 4 wells; the control was only incubated±growth factor. After 65 h, 50 μof MTT (2.5 mg/ml in PBS) were added and the supernatant was removed after 7 h. The colored substance formed by the living cells was dissolved by addition of 100 μl of DMSO/well. The absorption was measured at 492 nm for each well with the aid of a 340 CC Multiscan photometer (Flow).
The mean value is formed from the 4 wells of a group and the absorption difference between the controls± growth factor (A) and between the groups with test substance± growth factor (B) is determined.

SMILES: O=C1C=CC(=O)c2ccccc21 [Naphthoquinone]
- PKA % inhib. at 40 μg/ml [1]: 46%
- EGF stimulation % inhibition at 1 μg/ml [2]: tox

— US5519018A, “Substituted phenols and their use for the treatment of disorders caused by cell proliferation” (Behringwerke Aktiengesellschaft, priority 1992, dated 1996)
